The reference is the same well before dosing, and untreated signal decays as well.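 Labels refer to human fibroblasts, largely primary: uterine (C12385, HUF), lung (H6013), bone (Hs27A), adrenal (HADF), skin (WS1), plus mammary HMF and breast cancer-associated Hs343T. Cancer lines are basal-like or mesenchymal-like triple-negative breast cancer. The paper counts as hits responses shifting over 3x the replicate standard deviation. The tissue of the other fibroblasts is not given here.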
Tested on: BT20
Experiment: relative JC-1 red fluorescence (viability) vs pre-drug, coculture with fibroblast (fraction); higher = more viable cancer cells
Description: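 JC-1 labelled TNBC cells cocultured 1:1 (1,500 cells each) with CellTrace Violet stained primary or stromal fibroblasts in 384-well plates in FluoroBrite medium, treated with one of 42 anticancer drugs at 0.1, 1, 10 or 100 uM. JC-1 red fluorescence (mitochondrial integrity in cancer cells only) was read by plate reader every 8 h for 72 h. Values are normalised to each well's pre-drug value. The stock of one drug was tenfold lower, so its dose labels may be too high.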

N.N.[Cl][Pt][Cl] [Cisplatin]
relative JC-1 red fluorescence
Settings | 8 h | 16 h | 24 h | 32 h | 40 h | 48 h | 56 h | 64 h | 72 h
0.1 µM, coculture fibroblast: C12385 | 0.872 | 0.786 | 0.723 | 0.654 | 0.601 | 0.567 | 0.545 | 0.536 | 0.524
0.1 µM, coculture fibroblast: H6013 | 0.94882 | 0.918 | 0.891 | 0.85 | 0.828 | 0.805 | 0.813 | 0.791 | 0.771
0.1 µM, coculture fibroblast: H6019 | 0.8469 | 0.782 | 0.754 | 0.702 | 0.652 | 0.64 | 0.606 | 0.58 | 0.562
0.1 µM, coculture fibroblast: H6076 | 0.866 | 0.8936 | 0.818 | 0.791 | 0.77 | 0.757 | 0.751 | 0.751 | 0.743
0.1 µM, coculture fibroblast: H6231 | 0.846 | 0.871 | 0.791 | 0.727 | 0.691 | 0.64 | 0.608 | 0.59 | 0.582
0.1 µM, coculture fibroblast: HADF | 0.89 | 0.948 | 0.9 | 0.872 | 0.845 | 0.809 | 0.799 | 0.779 | 0.762
0.1 µM, coculture fibroblast: HCFa | 0.9222 | 0.8678 | 0.8426 | 0.787 | 0.757 | 0.725 | 0.698 | 0.679 | 0.64
0.1 µM, coculture fibroblast: HCPF | 0.9862 | 0.8676 | 0.79 | 0.743 | 0.703 | 0.663 | 0.635 | 0.628 | 0.605
0.1 µM, coculture fibroblast: HHSteC | 0.913 | 0.881 | 0.876 | 0.819 | 0.791 | 0.77 | 0.747 | 0.736 | 0.709
0.1 µM, coculture fibroblast: HMF | 0.936 | 0.851 | 0.768 | 0.701 | 0.668 | 0.623 | 0.599 | 0.58 | 0.572
0.1 µM, coculture fibroblast: HPFa | 0.924 | 0.86561 | 0.862 | 0.793 | 0.774 | 0.74 | 0.719 | 0.699 | 0.658
0.1 µM, coculture fibroblast: HUF | 0.882 | 0.802 | 0.762 | 0.676 | 0.629 | 0.602 | 0.588 | 0.576 | 0.566
0.1 µM, coculture fibroblast: Hs5 | 0.926 | 0.8722 | 0.796 | 0.747 | 0.699 | 0.666 | 0.641 | 0.612 | 0.59
0.1 µM, coculture fibroblast: Hs27A | 0.732 | 0.757 | 0.934 | 0.952 | 0.912 | 0.902 | 0.892 | 0.872 | 0.825
0.1 µM, coculture fibroblast: Hs343T | 0.844 | 0.854 | 0.752 | 0.693 | 0.659 | 0.616 | 0.573 | 0.549 | 0.526
0.1 µM, coculture fibroblast: WS1 | 0.83 | 0.734 | 0.7 | 0.63 | 0.585 | 0.563 | 0.537 | 0.518 | 0.511
1 µM, coculture fibroblast: C12385 | 0.877 | 0.819 | 0.797 | 0.732 | 0.691 | 0.672 | 0.656 | 0.64 | 0.636
1 µM, coculture fibroblast: H6013 | 0.911 | 0.899 | 0.9 | 0.858 | 0.839 | 0.838 | 0.851 | 0.838 | 0.833
1 µM, coculture fibroblast: H6019 | 0.8458 | 0.7774 | 0.778 | 0.71 | 0.657 | 0.637 | 0.611 | 0.586 | 0.565
1 µM, coculture fibroblast: H6076 | 0.98 | 0.8925 | 0.825 | 0.792 | 0.767 | 0.752 | 0.755 | 0.751 | 0.734
1 µM, coculture fibroblast: H6231 | 0.9584 | 0.875 | 0.8084 | 0.754 | 0.718 | 0.679 | 0.661 | 0.639 | 0.626
1 µM, coculture fibroblast: HADF | 0.936 | 0.887 | 0.843 | 0.8013 | 0.797 | 0.771 | 0.7531 | 0.749 | 0.7247
1 µM, coculture fibroblast: HCFa | 0.91 | 0.831 | 0.8 | 0.74 | 0.702 | 0.676 | 0.656 | 0.633 | 0.59
1 µM, coculture fibroblast: HCPF | 0.876 | 0.902 | 0.827 | 0.7687 | 0.728 | 0.692 | 0.677 | 0.669 | 0.647
1 µM, coculture fibroblast: HHSteC | 0.911 | 0.885 | 0.866 | 0.818 | 0.788 | 0.771 | 0.766 | 0.745 | 0.731
1 µM, coculture fibroblast: HMF | 0.946 | 0.824 | 0.7334 | 0.673 | 0.632 | 0.585 | 0.575 | 0.56 | 0.535
1 µM, coculture fibroblast: HPFa | 0.897 | 0.871 | 0.87 | 0.799 | 0.781 | 0.749 | 0.737 | 0.72 | 0.677
1 µM, coculture fibroblast: HUF | 0.877 | 0.82 | 0.794 | 0.714 | 0.664 | 0.629 | 0.616 | 0.602 | 0.589
1 µM, coculture fibroblast: Hs5 | 0.919 | 0.8262 | 0.776 | 0.73 | 0.715 | 0.699 | 0.69 | 0.687 | 0.682
1 µM, coculture fibroblast: Hs27A | 0.874 | 0.818 | 0.888 | 0.885 | 0.875 | 0.894 | 0.898 | 0.892 | 0.866
1 µM, coculture fibroblast: Hs343T | 0.951 | 0.8248 | 0.723 | 0.655 | 0.625 | 0.581 | 0.548 | 0.525 | 0.508
1 µM, coculture fibroblast: WS1 | 0.8575 | 0.79178 | 0.763 | 0.687 | 0.635 | 0.603 | 0.58 | 0.56 | 0.554
10 µM, coculture fibroblast: C12385 | 0.884 | 0.8025 | 0.729 | 0.634 | 0.543 | 0.504 | 0.479 | 0.475 | 0.461
10 µM, coculture fibroblast: H6013 | 0.947 | 0.888 | 0.839 | 0.745 | 0.703 | 0.684 | 0.707 | 0.694 | 0.682
10 µM, coculture fibroblast: H6019 | 0.861 | 0.823 | 0.787 | 0.678 | 0.604 | 0.592 | 0.563 | 0.544 | 0.536
10 µM, coculture fibroblast: H6076 | 0.866 | 0.864 | 0.719 | 0.677 | 0.658 | 0.644 | 0.651 | 0.657 | 0.649
10 µM, coculture fibroblast: H6231 | 0.783 | 0.8488 | 0.692 | 0.604 | 0.554 | 0.506 | 0.484 | 0.468 | 0.454
10 µM, coculture fibroblast: HADF | 0.86 | 0.888 | 0.7745 | 0.655 | 0.631 | 0.596 | 0.594 | 0.594 | 0.578
10 µM, coculture fibroblast: HCFa | 0.935 | 0.868 | 0.804 | 0.687 | 0.639 | 0.608 | 0.603 | 0.594 | 0.571
10 µM, coculture fibroblast: HCPF | 0.837 | 0.887 | 0.774 | 0.699 | 0.65 | 0.571 | 0.539 | 0.533 | 0.51
10 µM, coculture fibroblast: HHSteC | 0.92 | 0.853 | 0.814 | 0.704 | 0.652 | 0.619 | 0.614 | 0.611 | 0.588
10 µM, coculture fibroblast: HMF | 0.953 | 0.882 | 0.721 | 0.646 | 0.61 | 0.575 | 0.564 | 0.547 | 0.527
10 µM, coculture fibroblast: HPFa | 0.944 | 0.904 | 0.876 | 0.77 | 0.746 | 0.709 | 0.72 | 0.719 | 0.699
10 µM, coculture fibroblast: HUF | 0.882 | 0.776 | 0.693 | 0.575 | 0.521 | 0.482 | 0.479 | 0.465 | 0.462
10 µM, coculture fibroblast: Hs5 | 0.934 | 0.873 | 0.71 | 0.624 | 0.566 | 0.522 | 0.512 | 0.493 | 0.484
10 µM, coculture fibroblast: Hs27A | 0.85 | 0.811 | 0.9933 | 0.898 | 0.8524 | 0.85 | 0.8571 | 0.8552 | 0.814
10 µM, coculture fibroblast: Hs343T | 0.9841 | 0.831 | 0.594 | 0.487 | 0.432 | 0.384 | 0.355 | 0.346 | 0.33
10 µM, coculture fibroblast: WS1 | 0.82847 | 0.737 | 0.631 | 0.496 | 0.394 | 0.352 | 0.321 | 0.302 | 0.294
100 µM, coculture fibroblast: C12385 | 0.8756 | 0.715 | 0.713 | 0.654 | 0.603 | 0.595 | 0.583 | 0.578 | 0.573
100 µM, coculture fibroblast: H6013 | 0.825 | 0.592 | 0.617 | 0.521 | 0.498 | 0.482 | 0.495 | 0.482 | 0.465
100 µM, coculture fibroblast: H6019 | 0.82 | 0.508 | 0.449 | 0.396 | 0.355 | 0.339 | 0.317 | 0.304 | 0.292
100 µM, coculture fibroblast: H6076 | 0.91001 | 0.6186 | 0.523 | 0.49 | 0.474 | 0.453 | 0.455 | 0.444 | 0.423
100 µM, coculture fibroblast: H6231 | 0.789 | 0.643 | 0.562 | 0.533 | 0.512 | 0.488 | 0.482 | 0.475 | 0.469
100 µM, coculture fibroblast: HADF | 0.857 | 0.575 | 0.615 | 0.521 | 0.507 | 0.486 | 0.487 | 0.477 | 0.457
100 µM, coculture fibroblast: HCFa | 0.832 | 0.682 | 0.732 | 0.65 | 0.633 | 0.607 | 0.607 | 0.595 | 0.573
100 µM, coculture fibroblast: HCPF | 0.913 | 0.67 | 0.505 | 0.467 | 0.447 | 0.419 | 0.414 | 0.41 | 0.39
100 µM, coculture fibroblast: HHSteC | 0.834 | 0.654 | 0.69 | 0.604 | 0.596 | 0.577 | 0.585 | 0.571 | 0.556
100 µM, coculture fibroblast: HMF | 0.9096 | 0.605 | 0.474 | 0.433 | 0.429 | 0.41 | 0.412 | 0.411 | 0.399
100 µM, coculture fibroblast: HPFa | 0.8106 | 0.639 | 0.68 | 0.618 | 0.616 | 0.595 | 0.608 | 0.6 | 0.575
100 µM, coculture fibroblast: HUF | 0.84973 | 0.5474 | 0.507 | 0.44 | 0.402 | 0.383 | 0.379 | 0.368 | 0.364
100 µM, coculture fibroblast: Hs5 | 0.905 | 0.629 | 0.56 | 0.521 | 0.505 | 0.486 | 0.482 | 0.473 | 0.46
100 µM, coculture fibroblast: Hs27A | 0.841 | 0.696 | 0.792 | 0.648 | 0.624 | 0.618 | 0.637 | 0.624 | 0.603
100 µM, coculture fibroblast: Hs343T | 0.878 | 0.49 | 0.369 | 0.334 | 0.325 | 0.3 | 0.303 | 0.294 | 0.29
100 µM, coculture fibroblast: WS1 | 0.828 | 0.589 | 0.501 | 0.392 | 0.334 | 0.31 | 0.297 | 0.283 | 0.274

Reference: the supplement of paper PMC6078165
